Assay results taken from PMC9638930, “Structural basis of flagellar motility regulation by the MogR repressor and the GmaR antirepressor in Listeria monocytogenes” (Nucleic Acids Research, 2022).

Legend:
[1] = target: T1, MogR DBD protein (MogRD; residues 1–162) (Listeria monocytogenes) (UniProt P0DJO8); assay: ELISA; wells coated with MogR protein (20 nM); three-fold serially diluted His6-tagged GmaRFL, 2 h at 18°C; detected with anti-His6 antibody; both purified
T1 sequence: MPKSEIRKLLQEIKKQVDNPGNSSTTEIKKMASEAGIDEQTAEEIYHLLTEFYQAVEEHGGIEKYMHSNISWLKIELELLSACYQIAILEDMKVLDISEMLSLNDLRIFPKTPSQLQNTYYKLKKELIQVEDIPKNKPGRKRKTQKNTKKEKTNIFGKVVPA

[2] = target: His6-tagged GmaRFL coexpressed from pETDuet-1 (Listeria monocytogenes); assay: pull-down; MogR and His6-tagged GmaRFL coexpressed in E. coli BL21 (DE3) from pETDuet-1; Ni-NTA in 50 mM Tris pH 8.0, 100 mM NaCl, 5 mM βME; SDS-PAGE, Coomassie
[3] = target: full-length GmaR (GmaRFL; residues 1–637) (Listeria monocytogenes); assay: native gel or EMSA; native PAGE; GmaR pretreated at 4 or 30°C for 15 min, then incubated with MogRD at 18°C; both purified
[4] = target: GmaRFL^E293A (Listeria monocytogenes); assay: as above
[5] = target: His6-tagged GmaR_(141-637)^H286C/R589C (Listeria monocytogenes); assay: native gel or EMSA; native PAGE; GmaR_(141-637)^H286C/R589C pretreated at different temperatures, then incubated with MogRD at 18°C, βME-free interaction solution; both purified
[6] = target: full-length GmaR (GmaRFL; residues 1–637) (Listeria monocytogenes); assay: condition: only GmaRFL pretreated at 37°C for 15 min; native gel or EMSA; native PAGE; GmaRFL pretreated at 37°C for 15 min, then incubated with MogRD at 18°C; both purified
[7] = target: N-terminally truncated GmaR protein (GmaR_(231-637); residues 231–637) (Listeria monocytogenes); assay: crystal structure; GmaR_(231-637)–MogRD complex, crystals grown at 18°C, molecular replacement; both purified
[8] = target: full-length GmaR (GmaRFL; residues 1–637) (Listeria monocytogenes); assay: condition: only GmaRFL preincubated at 37°C for 15 min; SEC; GmaRFL (192 μg) preincubated at 37°C for 15 min, then incubated with MogRD (50 μg) at a 1:1 molar ratio at 18°C for 30 min; Superdex 200 10/300 at room temperature; fractions by SDS-PAGE; both purified
[9] = target: GmaRFL^E293A fused with the T18 fragment of adenylate cyclase (Listeria monocytogenes); assay: two-hybrid; bacterial adenylate cyclase-based two-hybrid in E. coli BTH101, GmaR-T18 and MogR-T25, cells cultured at 30°C, β-galactosidase activity
[10] = target: GmaRFL fused with the T18 fragment of adenylate cyclase (Listeria monocytogenes); assay: as above

Molecule: His6-tagged GmaRFL protein (Listeria monocytogenes)
- binding [1]: binds

B1: MogRD coexpressed from pETDuet-1 (domain or fragment, UniProt P0DJO8 1-162)
chain: MPKSEIRKLLQEIKKQVDNPGNSSTTEIKKMASEAGIDEQTAEEIYHLLTEFYQAVEEHGGIEKYMHSNISWLKIELELLSACYQIAILEDMKVLDISEMLSLNDLRIFPKTPSQLQNTYYKLKKELIQVEDIPKNKPGRKRKTQKNTKKEKTNIFGKVVPA
- binding [2]: binds

B2: MogR DBD protein (MogRD; residues 1–162) (domain or fragment, UniProt P0DJO8 1-162)
chain: MPKSEIRKLLQEIKKQVDNPGNSSTTEIKKMASEAGIDEQTAEEIYHLLTEFYQAVEEHGGIEKYMHSNISWLKIELELLSACYQIAILEDMKVLDISEMLSLNDLRIFPKTPSQLQNTYYKLKKELIQVEDIPKNKPGRKRKTQKNTKKEKTNIFGKVVPA
- binding [3]: binds
- binding [4]: binds
- binding [5]: binds
- binding [6]: no binding
- binding [7]: binds
- binding [8]: no binding

B3: MogRD fused with the T25 fragment of adenylate cyclase (domain or fragment, UniProt P0DJO8 1-162)
chain: MPKSEIRKLLQEIKKQVDNPGNSSTTEIKKMASEAGIDEQTAEEIYHLLTEFYQAVEEHGGIEKYMHSNISWLKIELELLSACYQIAILEDMKVLDISEMLSLNDLRIFPKTPSQLQNTYYKLKKELIQVEDIPKNKPGRKRKTQKNTKKEKTNIFGKVVPA
- binding [9]: binds
- binding [10]: binds

No constants are given. Whether binding was seen depends on the method and setting. For some of these results: A result given as binding can be weak or reduced; the word gives no strength. For some of these results: Sequences can lack the tags named with a protein. For some of these results: In cells and extracts the contact can be indirect.
